From ChEMBL document CHEMBL3988442, “University of Dundee, Small-Polar-MMV Screening Library” (2021).

By UniProt entry, the sequences of proteins in these tests, tags left out.
UniProt E9BF75, entry or part of it: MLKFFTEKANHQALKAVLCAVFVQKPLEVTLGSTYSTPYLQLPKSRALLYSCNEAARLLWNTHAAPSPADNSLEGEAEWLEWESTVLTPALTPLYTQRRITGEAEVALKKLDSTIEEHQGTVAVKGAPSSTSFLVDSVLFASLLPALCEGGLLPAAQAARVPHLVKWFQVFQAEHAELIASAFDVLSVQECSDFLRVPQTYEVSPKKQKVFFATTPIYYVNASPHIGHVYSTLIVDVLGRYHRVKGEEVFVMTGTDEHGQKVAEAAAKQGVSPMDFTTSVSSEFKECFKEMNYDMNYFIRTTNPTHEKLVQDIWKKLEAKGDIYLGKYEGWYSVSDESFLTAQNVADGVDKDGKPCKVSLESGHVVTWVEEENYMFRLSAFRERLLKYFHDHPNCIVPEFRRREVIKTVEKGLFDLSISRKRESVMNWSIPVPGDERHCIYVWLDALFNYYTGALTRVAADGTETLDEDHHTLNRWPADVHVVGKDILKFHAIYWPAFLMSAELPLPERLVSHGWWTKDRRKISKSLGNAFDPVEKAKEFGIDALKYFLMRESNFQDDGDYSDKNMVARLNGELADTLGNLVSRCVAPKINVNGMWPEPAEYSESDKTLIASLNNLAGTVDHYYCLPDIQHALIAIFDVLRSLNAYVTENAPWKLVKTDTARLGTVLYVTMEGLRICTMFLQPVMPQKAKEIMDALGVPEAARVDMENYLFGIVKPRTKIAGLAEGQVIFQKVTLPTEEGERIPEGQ

A: 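Methionyl-tRNA synthetase (putative), Leishmania donovani (UniProt E9BF75). Primary screen of methionyl-tRNA synthetase; the read-out is not stated. The test concentration is not given. The values are filed as inhibition. Size under these conditions: about 68,000 compounds, about 24 of them at 50% or above in at least one test.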
B: 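Assay on Mycobacterium tuberculosis, filed only as a heat shock assay from Cornell; the read-out is not stated. The concentration is filed as 10 mM, unlikely as a test dose, so the dose is not known. Direction is inferred from retests: higher values go with stronger inhibition. Size under these conditions: about 69,000 compounds, about 930 of them at 50% or above in at least one test.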

All values are in %. The controls that fix the scale are not given in the record; negative values are as filed. The compounds are a random part of those screened. A dash means the value is not listed here; it may have been measured.

With O=C(C1CCOCC1)N1C[C@H]2CC[C@@H]1CN(C1Cc3ccccc3C1)C2 the screen gave A: 8.541%. For Cc1cccc(NC2CCN(C(=O)Nc3cn[nH]c3)CC2)n1 the result was A: 6.667%; B: -9.216%. O=C(O)C(F)(F)F.[H][C@@]12CN(Cc3nccs3)C[C@]1([H])CN(C(=O)N1CCOCC1)C2 gave B: -10%. With Cn1c(C2CC2)nc2c1CCN(CCOc1ccc(C#N)cc1)C2 the screen gave A: 14.17%; B: 10.05%. O=C(O)c1csc(S(=O)(=O)N2CCCc3cc(OC(F)F)ccc32)c1 read A: 9.023%; B: -41.71%. For Cc1cccc(CN2CC[C@@H]3[C@@H]2CCN3C(=O)c2cnoc2C)n1 the result was A: 18.1%. Result for CC(=O)Nc1nc(C(=O)NCc2ccc(N3CCOC(C)C3)nc2)cs1 (configuration not stated) was A: 16.33%; B: -3.322%. O=C(NCCn1nc(C2CCNC2)c2cccnc21)c1ccccn1 (configuration not stated) read A: 11.46%.

With O=C(O)C(F)(F)F.[H][C@@]12CN(Cc3ccoc3)CCO[C@]1([H])CN(C(=O)COC1CCCC1)C2 the screen gave B: -4.151%. With COc1c(CNCc2cccnc2N2CCOCC2)c(C)nn1C the screen gave A: 7.975%; B: 0.6082%. For CCN(CC)S(=O)(=O)NCC1COc2ccccc2O1 (configuration not stated) the result was A: -0.838%; B: -23.87%. With CC(Nc1nc(-c2ccncc2)nc2c1CCNC2)c1ccccc1 (configuration not stated) the screen gave A: 27.44%; B: 18.8%. For Cc1cc(CN2CCCC(C)(CO)C2)ccc1F (configuration not stated) the result was A: 10.04%; B: 1.002%. With CO[C@H]1CCN(C(=O)c2cc(C)on2)[C@H]1Cc1ccncc1 the screen gave A: 16.81%; B: -5.834%. For COc1ccc(C(=O)NCCN(C)C)c(I)c1 the result was A: 15.11%; B: -0.3602%. O=C(O)C(F)(F)F.O=C(O)C(F)(F)F.[H][C@@]12CN(Cc3cc[nH]n3)C[C@]1([H])OCCN2CC1CC1 read B: 0.7679%.

Result for CCc1nc(C2CCCN2Cc2nc3ccccc3o2)no1 (configuration not stated) was A: -1.389%; B: 0.01952%. With Cc1cc(OCC(=O)N2CCCC(c3nccs3)C2)no1 (configuration not stated) the screen gave A: 7.225%; B: -14.72%. CC1(C(=O)NC2CCCC2)CCCN(c2cnccn2)C1 (configuration not stated) read A: 14.84%; B: 6.911%. c1ccc(-n2ccc(CN3CCOC(Cn4cncn4)C3)n2)cc1 (configuration not stated) gave A: 16.06%; B: -2.949%. Result for c1cc(CN2Cc3nccn3CC(Cn3cncn3)C2)ccn1 (configuration not stated) was A: 21.47%. For COCC1CCCCN1C(=O)c1cc(-c2cccc(OC)c2)n[nH]1 (configuration not stated) the result was A: 20.07%; B: 2.369%. Result for CCOCCn1c(=O)n(Cc2ccccc2F)c2cc(C(=O)O)cnc21 was A: 8.711%; B: -8.307%. Result for Cc1ccc(F)c(NCc2ccc(C(=O)N(C)C)[nH]2)c1 was A: 8.333%; B: -16.72%.

Result for [H][C@]12CC[C@]([H])(CN(S(=O)(=O)N(C)C)C1)N(CCC(=O)NCc1ccco1)C2 was B: -9.627%. CC1(C)Oc2ccc(NC(=O)c3ccc(=O)[nH]n3)cc2O1 read A: 11.35%; B: 0.3881%. For CN(C)C(=O)CN1C(=O)CCC12CCN(Cc1cccs1)CC2 the result was A: -2.244%. Result for Cc1cccc(C(=O)N2CCN(C(=O)Cc3ccccn3)CC2)c1C was A: 17.48%; B: 3.525%. With Cn1cccc1C(=O)OCCNC(=O)c1ccccc1 the screen gave A: 5.495%; B: 10.67%. CN(C)c1ccc(C(=O)NCCCNc2ccc(C(F)(F)F)cn2)cc1 gave A: 17.89%; B: 2.048%. Cc1ccc(S(=O)(=O)NCc2cnn(C)c2)c(F)c1 gave A: 15.66%; B: -4.725%. For CN(Cc1nc(C(F)(F)F)cs1)C(=O)CCc1cccnc1 the result was A: 23.21%; B: -9.607%.

Result for Cc1nc(CC2CCCN(Cc3nc(N)c4ccccc4n3)C2)no1 (configuration not stated) was A: 17.63%; B: -13.65%. COCCN1CCC2(COCc3cnc(-c4ccccc4)nc32)C1.O=C(O)C(F)(F)F (configuration not stated) read B: 2.376%. Result for Cc1ncccc1NS(=O)(=O)Cc1cccc(F)c1 was A: 18.08%; B: -15.6%. O=C1OC2(CCNCC2)CN1CC(=O)N1CCCC1c1ccco1 (configuration not stated) gave A: 16.3%; B: 3.323%. [H][C@@]12CNC[C@]1([H])CN(C(=O)c1ccc(S(=O)(=O)NCC(F)F)cc1)C2 gave B: -7.497%. Result for [H][C@@]12CN(C(=O)c3cccnc3)C[C@]1([H])OCC(=O)N2Cc1cccnc1 was B: -10.35%. With Cc1noc(C)c1CN1CCC(c2ccnn2CCO)CC1 the screen gave A: 13.86%; B: -0.9941%. c1csc(-c2cc(CN3CCN(c4nccs4)CC3)no2)c1 gave A: 7.343%; B: 11.46%.

For Cc1cc(CNC(=O)NCC(O)c2cccc(F)c2)no1 (configuration not stated) the result was A: 16.15%; B: 13.95%. O=C(c1cc(F)ccc1F)C1CCN(C(=O)c2cccnc2O)CC1 read A: 16.67%; B: -10.66%. COc1cccc(S(=O)(=O)NC(=O)CC2CCCC2)c1 gave A: 12.53%; B: 1.853%. With Cc1ccc(NCCCNC(=O)C2CCCN(Cc3ccco3)C2)nc1 (configuration not stated) the screen gave A: 7.263%; B: -18.11%. For C1CN(CC2CC2)C(COCC2CC2)c2nnn(CC3CC3)c21.O=C(O)C(F)(F)F (configuration not stated) the result was B: -14.94%.

Once more, the final 5:

SMILES	A	B
Cc1cc(CNC(=O)NCC(O)c2cccc(F)c2)no1 (configuration not stated)	16.15%	13.95%
O=C(c1cc(F)ccc1F)C1CCN(C(=O)c2cccnc2O)CC1	16.67%	-10.66%
COc1cccc(S(=O)(=O)NC(=O)CC2CCCC2)c1	12.53%	1.853%
Cc1ccc(NCCCNC(=O)C2CCCN(Cc3ccco3)C2)nc1 (configuration not stated)	7.263%	-18.11%
C1CN(CC2CC2)C(COCC2CC2)c2nnn(CC3CC3)c21.O=C(O)C(F)(F)F (configuration not stated)	-	-14.94%